Test results as given in patent US11512107B2, “Methods for assembly of tetracyclic compounds by stereoselective C9-C10 bond formation” (Trustees of Dartmouth College, priority 2018, dated 2022).
At least one compound was matched to its structure with a doubt left.

Chains of the proteins cited; added tags and fusions are not shown.
UniProt Q92731, whole entry: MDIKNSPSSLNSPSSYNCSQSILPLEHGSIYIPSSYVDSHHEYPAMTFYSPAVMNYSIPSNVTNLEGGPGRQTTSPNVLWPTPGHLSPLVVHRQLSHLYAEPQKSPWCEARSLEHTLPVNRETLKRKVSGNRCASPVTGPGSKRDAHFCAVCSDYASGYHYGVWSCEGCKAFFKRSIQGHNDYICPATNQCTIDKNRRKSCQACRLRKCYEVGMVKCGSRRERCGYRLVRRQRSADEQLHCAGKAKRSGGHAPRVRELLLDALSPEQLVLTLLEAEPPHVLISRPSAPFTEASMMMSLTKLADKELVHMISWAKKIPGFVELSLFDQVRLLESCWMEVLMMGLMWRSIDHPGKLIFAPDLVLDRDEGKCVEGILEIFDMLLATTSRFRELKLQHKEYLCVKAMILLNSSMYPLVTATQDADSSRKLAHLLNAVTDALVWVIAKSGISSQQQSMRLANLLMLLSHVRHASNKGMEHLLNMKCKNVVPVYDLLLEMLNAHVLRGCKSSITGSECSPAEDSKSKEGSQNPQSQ

Experiments:
ERβ [1] = experiment: Alkaline phosphatase (ALP) activity in DU-145 prostate cancer cells expressing endogenous ERβ; format: cell-based, human; conditions: DU-145 cells, 24 hours, 5 μM
Method: FIG. 2 is a bar graph showing alkaline phosphatase activity in human DU-145 prostate cancer cells (17β-estradiol, Compound 100, and Compound 101 were evaluated at 5 μM).
The DU-145 prostate cancer cell line only expresses ERβ and can be used as a model to examine the activation of ERβ in the absence of any potential confounding signal driven by ERα. Alkaline phosphatase (ALP) expression is induced in an ER-dependent manner and has been used to characterize the activity of synthetic ER agonists and antagonists.
In order to examine the ability of Compound 100 and Compound 101 to activate ERβ in the context of a cell line expressing endogenous ERβ, DU-145 cells were treated for 24 hours with either 17β-estradiol, Compound 100, or Compound 101 and ALP activity derived from the cells was examined.

established tumors = experiment: Growth of established tumors in vivo; conditions: initial in vivo studies
U251 and U87 cells [2] = experiment: Growth inhibition and viable cell counts of glioblastoma-derived cell lines; format: cell-based, human; conditions: assessed every 24 hours for 5 days, compared to TMZ or DMSO
Method: FIG. 3A-3B are line graphs depicting (A) dose dependent growth inhibition of U251 and U87 cells treated with Compound 100, Compound 101, TMZ, and vehicle control DMSO (n=4) and (B) viable cell counts of U251 and U87 cells treated with Compound 100, Compound 101, TMZ, and vehicle control DMSO determined every 24 hours for 96 hours (n=4)
To determine the biological effect of Compound 100 and Compound 101, human glioblastoma-derived cell lines U251 and U87 were treated with varying concentrations of Compound 100, Compound 101, temazolomide (TMZ; a standard of care chemotherapeutic agent), or vehicle-toxicity control, dimethylsulfoxide (DMSO) used at final volumes that were identical to those used to attain all concentrations tested of Compound 100 and Compound 101.

U251 and U87 cells [3] = experiment: Incucyte live cell imaging of morphological changes; format: cell-based, human; conditions: U251 and U87, over five days
ERβ [4] = biological target: ERβ (Homo sapiens, UniProt Q92731); experiment: ERβ agonist assay (functional activity at estrogen receptors, FIG. 1); format: cell-based
Method: FIG. 1 is a set of line graphs showing the results of ERβ and ERα agonist assays for Compounds 100 and 101.
Compounds 100 and 101 were evaluated for their functional activity at estrogen receptors (both ERα and ERβ). 17β-estradiol was used as a control, as it is appreciated to be a potent agonist of both ERα and ERβ.

For `C[C@]12CC[C@@]3(C)C(=C1C[C@@H](O)C2)CCc1cc(O)ccc13` [Compound 100, (9S,13R,16S)-9,13-dimethyl-7,9,11,12,13,15,16,17-octahydro-6H-cyclopenta[a]phenanthrene-3,16-diol], the “induction of ALP activity” value (ERβ [1]) was “effective at inducing ALP to levels comparable to 17β-estradiol”, the “growth of established tumors” value (established tumors) was “reduces the growth of established tumors” and the “viability and proliferation of glioblastoma lines” value (U251 and U87 cells [2]) was “reduced viability and the resulting proliferation of glioblastoma lines in a dose dependent manner”. The morphological changes (U251 and U87 cells [3]) was “Increased loss of adherence and cellular integrity”.
`C[C@@]12CC[C@]3(C)C(=C1C[C@H](O)C2)CCc1cc(O)ccc13` [Compound 101, (9R,13S,16R)-9,13-dimethyl-7,9,11,12,13,15,16,17-octahydro-6H-cyclopenta[a]phenanthrene-3,16-diol] was tested, and the “induction of ALP activity” value (ERβ [1]) was “effective at inducing ALP to levels comparable to 17β-estradiol”, the “type of ERβ agonism” value (ERβ [4]) was “partial agonist” and the “growth of established tumors” value (established tumors) was “reduces the growth of established tumors”. For the same molecule, the “viability and proliferation of glioblastoma lines” value (U251 and U87 cells [2]) was “reduced viability and the resulting proliferation of glioblastoma lines in a dose dependent manner” and the morphological changes (U251 and U87 cells [3]) was “Increased loss of adherence and cellular integrity”.
